Assay: general procedure: Fmoc solid-phase peptide synthesis; 2-chlorotrityl resin; HBTU/DIEA
Conditions: whole synthesis, scale of the general procedure 0.25 mmol

With “H-Pro-Pro-Asp(OtBu)-Lys-NH2 silane hybrid” the “purity (crude or final not stated)” value was “greater than 95%”.

Reference: patent US20160096865 (published 2016)
